PubChem BioAssay AID652243 | Drosophila RNAi Screening Center – 2013

- Purpose: 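Knock-downs that decrease or increase androgen receptor reporter signal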 (primary screen)
- Cell system: Drosophila S2R+ cells
- Knock-down reagent: long dsRNA against Drosophila genes
- Time to read-out: 72 h (48 h, then 24 h hormone)
- Treatment: synthetic androgen R1881 at 10 nM for 24 h
- Read-out: 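Firefly light from an androgen-responsive reporter and Renilla control light per well, raw and unnormalised, for each of two replicates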
- Scale: firefly reporter light: higher = more light from androgen-responsive reporter; Renilla control light: higher = more constitutive control signal (cell number, transfection)
- Hit rule: 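Across duplicate plates, a knock-down whose log firefly/Renilla ratio shifted a set fold down or up from the GFP/LacZ control mean was a hit; the downward cut appears as both 1.5 and 3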
- Calls: active = hit: reporter lowered or raised; inactive = no hit
The deposit covers about 24,000 reagents; this is a random part of those that have a named target and a result. In the full data, 246 (1%) were called active. 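Plates not normalised; calls are printed but the firefly/Renilla ratio behind them is not deposited; fold cut for lowering reported inconsistently.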 Raw values vary from plate to plate and are shown uncorrected. Entries without a mark were called inactive. The record does not give: the amount of reagent.

With knock-down of mei-P22 [SID104191158], the screen gave firefly reporter light, replicate 1 = 1.03e5; firefly reporter light, replicate 2 = 95088; Renilla control light, replicate 1 = 1.27e6; Renilla control light, replicate 2 = 1.38e6.
SLO2 [SID104186006] showed firefly reporter light, replicate 1 = 3.88e5; firefly reporter light, replicate 2 = 2.40e5; Renilla control light, replicate 1 = 1.98e6; Renilla control light, replicate 2 = 1.61e6.
SLO2 [SID104186008] showed firefly reporter light, replicate 1 = 3.36e5; firefly reporter light, replicate 2 = 2.19e5; Renilla control light, replicate 1 = 2.44e6; Renilla control light, replicate 2 = 1.43e6.
With knock-down of SLO2 [SID104186010], the record shows firefly reporter light, replicate 1 = 3.17e5; firefly reporter light, replicate 2 = 2.28e5; Renilla control light, replicate 1 = 1.98e6; Renilla control light, replicate 2 = 1.95e6.
For SLO2 [SID104202582], the entry reads firefly reporter light, replicate 1 = 3.79e5; firefly reporter light, replicate 2 = 4.61e5; Renilla control light, replicate 1 = 8.69e5; Renilla control light, replicate 2 = 1.23e6.
SLO2 [SID104206349] scored firefly reporter light, replicate 1 = 2.32e5; firefly reporter light, replicate 2 = 2.48e5; Renilla control light, replicate 1 = 5.37e5; Renilla control light, replicate 2 = 8.16e5.

No new results follow: an excerpt of the list.
SLO2 [SID104186008] | firefly reporter light, replicate 1 = 3.36e5; firefly reporter light, replicate 2 = 2.19e5; Renilla control light, replicate 1 = 2.44e6; Renilla control light, replicate 2 = 1.43e6
SLO2 [SID104186010] | firefly reporter light, replicate 1 = 3.17e5; firefly reporter light, replicate 2 = 2.28e5; Renilla control light, replicate 1 = 1.98e6; Renilla control light, replicate 2 = 1.95e6

Next entries follow:
For CG14641 [SID104192019] the deposit lists firefly reporter light, replicate 1 = 63019; firefly reporter light, replicate 2 = 48577; Renilla control light, replicate 1 = 6.54e5; Renilla control light, replicate 2 = 3.91e5.
Against CG14641 [SID104205383], the values are firefly reporter light, replicate 1 = 7.67e5; firefly reporter light, replicate 2 = 5.09e5; Renilla control light, replicate 1 = 8.61e5; Renilla control light, replicate 2 = 4.35e5.
Against Polr1H [SID104194386], the values are firefly reporter light, replicate 1 = 48626; firefly reporter light, replicate 2 = 72759; Renilla control light, replicate 1 = 3.39e5; Renilla control light, replicate 2 = 3.47e5.
Polr1H [SID104207524] showed firefly reporter light, replicate 1 = 5.25e5; firefly reporter light, replicate 2 = 4.94e5; Renilla control light, replicate 1 = 1.45e6; Renilla control light, replicate 2 = 1.42e6.
Against CheB98a [SID104194674], the entry reads firefly reporter light, replicate 1 = 1.46e5; firefly reporter light, replicate 2 = 1.85e5; Renilla control light, replicate 1 = 2.19e6; Renilla control light, replicate 2 = 2.66e6.
For CG18675 [SID104188328], the entry reads firefly reporter light, replicate 1 = 1.01e5; firefly reporter light, replicate 2 = 1.18e5; Renilla control light, replicate 1 = 1.38e6; Renilla control light, replicate 2 = 1.35e6.
